Source: article PMC5666316
These are yes or no findings as the source states them, for the method shown. In cells and extracts the contact can be indirect. Binding can be weak; no strength is given. One block for each substance: values may come before it.

Amino acid sequences for entries named in this document (tags omitted). A change or cut given only in a name is not applied to a line headed by its entry.
UniProt Q9EPK8: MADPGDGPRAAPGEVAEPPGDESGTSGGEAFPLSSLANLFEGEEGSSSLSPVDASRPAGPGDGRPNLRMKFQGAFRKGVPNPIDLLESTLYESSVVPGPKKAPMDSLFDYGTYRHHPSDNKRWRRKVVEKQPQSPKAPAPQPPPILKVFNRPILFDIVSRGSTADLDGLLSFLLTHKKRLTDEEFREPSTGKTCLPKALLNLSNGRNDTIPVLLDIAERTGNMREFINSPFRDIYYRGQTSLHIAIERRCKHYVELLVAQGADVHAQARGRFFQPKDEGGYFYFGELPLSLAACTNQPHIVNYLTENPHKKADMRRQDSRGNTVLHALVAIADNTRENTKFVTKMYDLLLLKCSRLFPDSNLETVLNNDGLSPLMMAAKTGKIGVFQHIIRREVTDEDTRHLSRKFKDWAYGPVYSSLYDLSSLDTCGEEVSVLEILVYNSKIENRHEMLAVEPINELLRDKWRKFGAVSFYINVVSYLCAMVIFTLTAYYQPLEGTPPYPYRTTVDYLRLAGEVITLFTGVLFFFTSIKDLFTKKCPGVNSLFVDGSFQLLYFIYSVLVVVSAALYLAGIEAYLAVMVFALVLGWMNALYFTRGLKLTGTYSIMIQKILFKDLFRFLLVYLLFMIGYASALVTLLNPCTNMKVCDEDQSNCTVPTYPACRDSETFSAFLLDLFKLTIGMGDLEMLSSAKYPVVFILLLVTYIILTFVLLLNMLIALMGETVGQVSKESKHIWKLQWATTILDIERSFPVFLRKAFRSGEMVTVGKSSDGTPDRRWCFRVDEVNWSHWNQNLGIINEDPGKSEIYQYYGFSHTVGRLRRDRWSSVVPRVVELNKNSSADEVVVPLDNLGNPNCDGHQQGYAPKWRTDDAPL
UniProt P70605: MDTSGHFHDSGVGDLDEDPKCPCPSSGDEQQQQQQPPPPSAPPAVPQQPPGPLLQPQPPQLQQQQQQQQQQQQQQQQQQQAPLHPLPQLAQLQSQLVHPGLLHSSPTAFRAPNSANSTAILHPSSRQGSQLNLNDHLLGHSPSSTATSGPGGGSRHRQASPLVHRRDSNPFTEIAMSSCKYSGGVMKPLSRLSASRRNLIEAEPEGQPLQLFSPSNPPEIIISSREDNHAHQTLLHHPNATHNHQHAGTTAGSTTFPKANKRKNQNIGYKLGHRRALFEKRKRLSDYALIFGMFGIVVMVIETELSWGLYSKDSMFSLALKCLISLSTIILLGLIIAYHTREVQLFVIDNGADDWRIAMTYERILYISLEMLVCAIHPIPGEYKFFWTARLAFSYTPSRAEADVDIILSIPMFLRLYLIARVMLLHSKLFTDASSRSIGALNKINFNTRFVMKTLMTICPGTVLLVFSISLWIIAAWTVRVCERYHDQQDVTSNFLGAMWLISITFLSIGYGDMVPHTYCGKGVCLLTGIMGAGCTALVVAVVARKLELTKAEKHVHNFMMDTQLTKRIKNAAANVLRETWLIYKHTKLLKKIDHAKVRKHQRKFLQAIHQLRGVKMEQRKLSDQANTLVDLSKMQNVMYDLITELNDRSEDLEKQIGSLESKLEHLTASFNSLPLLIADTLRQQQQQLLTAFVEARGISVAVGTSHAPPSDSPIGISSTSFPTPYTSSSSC

How the values were obtained:
Assay in all cases: FRET or BRET; acceptor photobleaching FRET in HEK cells co-expressing CFP-tagged TRPV4 and YFP-tagged KCa2.3 (wild type or deletions); negative control CFP and YFP as separate molecules, positive control YFP-CFP dimer
[1] = target: CFP-tagged TRPV4 with the AR5 region deleted (UniProt Q9EPK8)
[2] = target: CFP-tagged TRPV4 with the AR6 region deleted (UniProt Q9EPK8)
[3] = target: CFP-tagged TRPV4 with the AR3 region deleted (UniProt Q9EPK8)
[4] = target: CFP-tagged TRPV4 with the AR1 region deleted (UniProt Q9EPK8)
[5] = target: CFP-tagged TRPV4 with the CaMBD region deleted (UniProt Q9EPK8)
[6] = target: CFP-tagged TRPV4 with the AR4 region deleted (UniProt Q9EPK8)
[7] = target: CFP-tagged TRPV4 (wild type) (UniProt Q9EPK8)

Substance: YFP-tagged KCa2.3 with the CaMBD region deleted (from UniProt P70605)
binding [7]: binds

Substance: YFP-tagged KCa2.3 with the α2 region deleted (from UniProt P70605)
binding [7]: binds

More lines, now with the values ahead:

binding [1]: binds | binding [2]: binds | binding [3]: binds | binding [4]: binds | binding [5]: binds | binding [6]: binds
Substance: YFP-tagged KCa2.3 (wild type) (from UniProt P70605 1-732)

binding [7]: binds
Substance: YFP-tagged KCa2.3 with the Loop region deleted (from UniProt P70605)

binding [7]: binds
Substance: YFP-tagged KCa2.3 with the α1 region deleted (from UniProt P70605)
